Data as given in PubChem BioAssay AID1224830 (NIAID, 2016)
Purpose: 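Host factors that control LPS-induced TNF expression in human macrophages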 (primary screen). Cells: human THP-1 monocytic leukaemia cells, TNF dual-luciferase reporter clone, PMA-differentiated to macrophage-like cells. Reagent: siRNA pool against human genes, 50 nM. Duration: LPS for 4 h, given about 3 days after siRNA transfection. Challenge: bacterial LPS (TLR4 ligand), 10 ng/ml. Detection: 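TNF firefly reporter luminescence divided by renilla, normalised to the plate median, then turned into a robust z-score for each replicate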. Scale: TNF reporter robust z-score: higher = stronger TNF reporter response to LPS. Hit rule: 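Each well counts as active if its z-score is over 2.8 or under -1.5; controls are left without a call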.
The deposit covers about 18,000 reagents; this is a random part of them. In the full data, about 2,900 (16%) were called active. 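Calls are made per well; low scores hint the gene aids the LPS response, high scores that it dampens it.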 Repeated entries: four replicate wells of each siRNA pool.

| TNF reporter robust z-score | activity call | gene |
| --- | --- | --- |
| -1.21 | inactive | KCNA10 |
| 0.02 | inactive | KCNA10 |
| -0.57 | inactive | KCNA10 |
| -0.51 | inactive | KCNA10 |
| -1.13 | inactive | KRTDAP |
| -1.18 | inactive | KRTDAP |
| -1.45 | inactive | KRTDAP |
| -1.47 | inactive | KRTDAP |
| -0.93 | inactive | LIPI |
| -0.92 | inactive | LIPI |
| -1.02 | inactive | LIPI |
| -0.68 | inactive | LIPI |
| -0.2 | inactive | DAZ3 |
| 0.52 | inactive | DAZ3 |
| -0.64 | inactive | DAZ3 |
| 0.73 | inactive | DAZ3 |
| 0.75 | inactive | H2AC6 |
| 3.29 | active | H2AC6 |
| 2.93 | active | H2AC6 |
| 3.3 | active | H2AC6 |
| 2.49 | inactive | TNFRSF6B |
| 3.12 | active | TNFRSF6B |
| 0.99 | inactive | TNFRSF6B |
| 1.56 | inactive | TNFRSF6B |
| – | inactive | LRWD1 |
| -0.23 | inactive | LRWD1 |
| -1.01 | inactive | LRWD1 |
| -1.19 | inactive | LRWD1 |
| -0.99 | inactive | ZNF443 |
| -0.77 | inactive | ZNF443 |
| -0.58 | inactive | ZNF443 |
| -0.3 | inactive | ZNF443 |
| -1.48 | inactive | SAFB |
| -0.51 | inactive | SAFB |
| -1.02 | inactive | SAFB |
| -1.76 | active | SAFB |
| 0.64 | inactive | FSHR |
| 0.95 | inactive | FSHR |
| 1 | inactive | FSHR |
| 1.73 | inactive | FSHR |
| 1.88 | inactive | NDUFB1 |
| 1.39 | inactive | NDUFB1 |
| 1.96 | inactive | NDUFB1 |
| 2.94 | active | NDUFB1 |
| -1.03 | inactive | OR52D1 |
| -0.12 | inactive | OR52D1 |
| -0.4 | inactive | OR52D1 |
| -0.47 | inactive | OR52D1 |
| -1.03 | inactive | ZNF181 |
| -0.61 | inactive | ZNF181 |
| -0.53 | inactive | ZNF181 |
| 1.3 | inactive | DMRTC1B |
| 1.25 | inactive | DMRTC1B |
| 0.93 | inactive | DMRTC1B |
| 1.43 | inactive | DMRTC1B |
| 0.3 | inactive | SLC30A2 |
| 0.49 | inactive | SLC30A2 |
| 0.17 | inactive | SLC30A2 |
| 0.29 | inactive | SLC30A2 |
| -0.96 | inactive | FOXN4 |
| -0.68 | inactive | FOXN4 |
| -0.29 | inactive | FOXN4 |
| -0.61 | inactive | FOXN4 |
| -0.37 | inactive | CGN |
| -0.25 | inactive | CGN |
| -0.9 | inactive | CGN |
| -0.33 | inactive | CGN |
| 1.08 | inactive | BRINP2 |
| 0.1 | inactive | BRINP2 |
| 1.3 | inactive | BRINP2 |
| 2.16 | inactive | BRINP2 |
| 0.79 | inactive | CHCHD7 |
| -0.34 | inactive | CHCHD7 |
| 0.02 | inactive | CHCHD7 |
| 0.38 | inactive | CHCHD7 |
| -0.83 | inactive | RGS7BP |
| -0.84 | inactive | RGS7BP |
| -1.01 | inactive | RGS7BP |
| -0.74 | inactive | RGS7BP |
| 3.25 | active | BOK |
| 2.65 | inactive | BOK |
| 2.94 | active | BOK |
| 3.22 | active | BOK |
| 10.8 | active | WNT7A |
| 4.14 | active | WNT7A |
| 4.22 | active | WNT7A |
| 0.55 | inactive | WNT7A |
| -1.46 | inactive | NEURL1 |
| 3.55 | active | NEURL1 |
| -0.09 | inactive | NEURL1 |
| 0.06 | inactive | NEURL1 |
| -0.3 | inactive | UFSP2 |
| 0.54 | inactive | UFSP2 |
| -0.63 | inactive | UFSP2 |
| 1.37 | inactive | UFSP2 |
| 1.03 | inactive | KRT73 |
| -0.64 | inactive | KRT73 |
| -0.84 | inactive | KRT73 |
| 1.38 | inactive | KRT73 |
| 0.08 | inactive | OGN |
| 1.61 | inactive | OGN |
| 2.43 | inactive | OGN |
| 1.75 | inactive | OGN |
| -0.06 | inactive | SLC14A1 |
| 0.78 | inactive | SLC14A1 |
| 0.41 | inactive | SLC14A1 |
| 1.09 | inactive | SLC14A1 |
| -1.04 | inactive | DAB2 |
| -0.08 | inactive | DAB2 |
| 1.02 | inactive | DAB2 |
| -0.09 | inactive | DAB2 |

Reformatted: entries from further up.
{"gene": "UFSP2", "TNF reporter robust z-score": -0.3, "activity call": "inactive"}
{"gene": "UFSP2", "TNF reporter robust z-score": 0.54, "activity call": "inactive"}
{"gene": "UFSP2", "TNF reporter robust z-score": -0.63, "activity call": "inactive"}
{"gene": "UFSP2", "TNF reporter robust z-score": 1.37, "activity call": "inactive"}
{"gene": "KRT73", "TNF reporter robust z-score": 1.03, "activity call": "inactive"}
{"gene": "KRT73", "TNF reporter robust z-score": -0.64, "activity call": "inactive"}
{"gene": "KRT73", "TNF reporter robust z-score": -0.84, "activity call": "inactive"}
{"gene": "KRT73", "TNF reporter robust z-score": 1.38, "activity call": "inactive"}
{"gene": "OGN", "TNF reporter robust z-score": 0.08, "activity call": "inactive"}
{"gene": "OGN", "TNF reporter robust z-score": 1.61, "activity call": "inactive"}
{"gene": "OGN", "TNF reporter robust z-score": 2.43, "activity call": "inactive"}
{"gene": "OGN", "TNF reporter robust z-score": 1.75, "activity call": "inactive"}
{"gene": "SLC14A1", "TNF reporter robust z-score": -0.06, "activity call": "inactive"}
{"gene": "SLC14A1", "TNF reporter robust z-score": 0.78, "activity call": "inactive"}
{"gene": "SLC14A1", "TNF reporter robust z-score": 0.41, "activity call": "inactive"}
{"gene": "SLC14A1", "TNF reporter robust z-score": 1.09, "activity call": "inactive"}
{"gene": "DAB2", "TNF reporter robust z-score": -1.04, "activity call": "inactive"}
{"gene": "DAB2", "TNF reporter robust z-score": -0.08, "activity call": "inactive"}
